Earlier results as cited in patent publication US20090233888A1, “TREATMENT OF DISEASE CONDITIONS THROUGH MODULATION OF HYDROGEN SULFIDE PRODUCED BY SMALL INTESTINAL BACTERIAL OVERGROWTH” (priority 2005, published 2009).
For at least one compound, name, drawing or mass did not settle the structure.

Assays:
[1] = 100 patients, mild to moderate AD, doxycycline and rifampin together; cited from earlier work
[2] = system: MMC; settings: dogs, iv; cited from earlier work

SMILES	cognitive worsening [1]	MMC and motilin cycling after loss by biliary diversion [2]
C[C@H]1c2cccc(O)c2C(=O)C2=C(O)[C@]3(O)C(=O)C(C(N)=O)=C(O)[C@@H](N(C)C)[C@@H]3[C@@H](O)[C@@H]21 [doxycycline]	reduce cognitive worsening	–
C[C@H](CCC(=O)O)[C@H]1CC[C@H]2[C@@H]3[C@@H](O)C[C@@H]4C[C@H](O)CC[C@]4(C)[C@H]3CC[C@]12C [ursodeoxycholic acid]	–	both restored
